Measurements reported in PubChem BioAssay AID652259 (Drosophila RNAi Screening Center, 2013).
Aim: 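Genome-wide hunt for genes that control Wingless pathway activity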 (primary screen). Cell system: Drosophila clone 8 imaginal disc epithelial cells. Reagents: long dsRNA against Drosophila genes. Treatment: pathway stimulated by co-transfected Wingless expression plasmid. Detection: 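Firefly luciferase from a tcf-site Wingless reporter, measured alongside co-transfected Renilla luciferase that tracks transfection; pathway stimulated by a Wingless plasmid; the firefly-to-Renilla ratio is not deposited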. Reading the numbers: firefly reporter light: higher = more Wg reporter light, before normalisation; Renilla control light: higher = more transfected or surviving cells. Hit rule: 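Strong candidates differ from their plate mean by at least two out of four per-plate statistical tests; weak candidates meet just one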. Meaning of the calls: active = candidate regulator (raises or lowers reporter); inactive = not a candidate.
The deposit covers about 22,000 reagents; below is a random part of those with a known target gene and a result. In the full data, 233 (1.1%) were called active. 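Light values are raw, unnormalised plate reads; the ratio scores behind the reporter calls were not deposited.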 Reagents against one gene are numbered here. Not stated in the record: the amount of reagent, the time to read-out, the dose of the treatment.

Knock-down of Usp16-45 resulted in: firefly reporter light, replicate 1 = 3421; firefly reporter light, replicate 2 = 7525; Renilla control light, replicate 1 = 739; Renilla control light, replicate 2 = 2242; inactive.
For CG14926, the values are firefly reporter light, replicate 1 = 2520; firefly reporter light, replicate 2 = 7717; Renilla control light, replicate 1 = 1104; Renilla control light, replicate 2 = 2513; inactive.
With knock-down of Ucp4A, the screen gave firefly reporter light, replicate 1 = 21933; firefly reporter light, replicate 2 = 7.91e5; Renilla control light, replicate 1 = 11625; Renilla control light, replicate 2 = 3.63e5; inactive.
TwdlO showed firefly reporter light, replicate 1 = 8405; Renilla control light, replicate 1 = 4593; inactive.
Femcoat gave firefly reporter light, replicate 1 = 20096; Renilla control light, replicate 1 = 9255; inactive.
Depletion of Cpr67Fa1 resulted in: firefly reporter light, replicate 1 = 8710; Renilla control light, replicate 1 = 3861; inactive.
After knock-down of ND-B17 the results were firefly reporter light, replicate 1 = 2723; firefly reporter light, replicate 2 = 5175; Renilla control light, replicate 1 = 1021; Renilla control light, replicate 2 = 3205; inactive.
Against Egfrap #1, the entry reads firefly reporter light, replicate 1 = 1012; firefly reporter light, replicate 2 = 7946; Renilla control light, replicate 1 = 1191; Renilla control light, replicate 2 = 2993; inactive.
Depletion of Egfrap #2 resulted in: firefly reporter light, replicate 1 = 836; firefly reporter light, replicate 2 = 6202; Renilla control light, replicate 1 = 1132; Renilla control light, replicate 2 = 3189; inactive.
Against slo #1, the entry reads firefly reporter light, replicate 1 = 6498; Renilla control light, replicate 1 = 3173; inactive.
Depletion of slo #2 came out at: firefly reporter light, replicate 1 = 2690; firefly reporter light, replicate 2 = 4695; Renilla control light, replicate 1 = 1132; Renilla control light, replicate 2 = 1642; inactive.
Against slo #3, the values are firefly reporter light, replicate 1 = 3.61e5; firefly reporter light, replicate 2 = 3.83e5; Renilla control light, replicate 1 = 1.45e5; Renilla control light, replicate 2 = 1.40e5; inactive.
For PolE4, the entry reads firefly reporter light, replicate 1 = 3512; firefly reporter light, replicate 2 = 7200; Renilla control light, replicate 1 = 499; Renilla control light, replicate 2 = 2868; inactive.
For CG17508, the values are firefly reporter light, replicate 1 = 3650; Renilla control light, replicate 1 = 2297; inactive.
CG9254 showed firefly reporter light, replicate 1 = 3283; firefly reporter light, replicate 2 = 9752; Renilla control light, replicate 1 = 1362; Renilla control light, replicate 2 = 3507; inactive.
With knock-down of CG3776, the record shows firefly reporter light, replicate 1 = 10652; Renilla control light, replicate 1 = 3824; inactive.
CG12780 scored firefly reporter light, replicate 1 = 3385; firefly reporter light, replicate 2 = 7320; Renilla control light, replicate 1 = 1106; Renilla control light, replicate 2 = 2896; inactive.
After knock-down of Sdc, the record shows firefly reporter light, replicate 1 = 3146; firefly reporter light, replicate 2 = 4490; Renilla control light, replicate 1 = 1019; Renilla control light, replicate 2 = 2037; inactive.

An excerpt from above, reduced to “firefly reporter light, replicate 1”.
Femcoat = 20096
Cpr67Fa1 = 8710
ND-B17 = 2723
Egfrap #1 = 1012

More records follow:
For Top3alpha the deposit lists firefly reporter light, replicate 1 = 1452; firefly reporter light, replicate 2 = 7516; Renilla control light, replicate 1 = 505; Renilla control light, replicate 2 = 2561; inactive.
For CG14330, the values are firefly reporter light, replicate 1 = 25574; Renilla control light, replicate 1 = 4720; inactive.
Obp50a showed firefly reporter light, replicate 1 = 7.62e5; firefly reporter light, replicate 2 = 7.96e5; Renilla control light, replicate 1 = 3.43e5; Renilla control light, replicate 2 = 3.60e5; inactive.
Depletion of CG42809 came out at: firefly reporter light, replicate 1 = 2603; firefly reporter light, replicate 2 = 6992; Renilla control light, replicate 1 = 1081; Renilla control light, replicate 2 = 2886; inactive.
For Sh #1, the values are firefly reporter light, replicate 1 = 6633; Renilla control light, replicate 1 = 427; inactive.
For Sh #2, the values are firefly reporter light, replicate 1 = 5600; firefly reporter light, replicate 2 = 7.57e5; Renilla control light, replicate 1 = 1884; Renilla control light, replicate 2 = 3.41e5; inactive.
With knock-down of Sh #3 the results were firefly reporter light, replicate 1 = 27841; Renilla control light, replicate 1 = 11142; inactive.
Depletion of Sh #4 gave: firefly reporter light, replicate 1 = 20824; Renilla control light, replicate 1 = 10151; inactive.
Depletion of Sh #5 came out at: firefly reporter light, replicate 1 = 7.84e5; firefly reporter light, replicate 2 = 8.27e5; Renilla control light, replicate 1 = 3.42e5; Renilla control light, replicate 2 = 2.98e5; inactive.
